# In paper PMC4721062, “Oxadiazole-2-oxides may have other functional targets, in addition to SjTGR, through which they cause mortality in Schistosoma japonicum” (Parasites & Vectors, 2016):
# Assays:
# SjTGR = experiment: NO production on incubation with SjTGR alone or SjTGR + NADPH; assay type: biochemical, Schistosoma japonicum; conditions: 10 μM compound, 50 min
# [1] = Nitric oxide (NO) release on incubation with cysteine; conditions: 10 μM compound incubated with 5 mM cysteine, 50 min, room temperature
# [2] = system: S. japonica adult worm homogenate supernatant; experiment: NO production on incubation with worm homogenate supernatant; set-up: species or system Schistosoma japonicum; conditions: 10 μM compound, worm homogenate (100 μg), 50 min
smiles,measurement,setting,value
N#Cc1c(-c2ccc(OCCCOc3ccc(-c4no[n+]([O-])c4C#N)cc3)cc2)no[n+]1[O-] [Compound 21],"NO production, SjTGR + NADPH",SjTGR; 15 nM SjTGR + 100 μM NADPH,5.0 ± 0.3 µM
same,"NO production, SjTGR",SjTGR; 15 nM SjTGR alone,4.8 ± 0.4 µM
same,NO released,[1],did not release NO
same,"NO production, Worm homogenate supernatant",[2],9.2 ± 1.8 µM
